Laboratory results taken from patent US10344025B2, “GLS1 inhibitors for treating disease” (Board of Regents, The University of Texas System, priority 2014, dated 2019).
Structures were worked out from names or drawings and are uncertain.

Sequences of proteins named here, by UniProt entry; tags and fusion partners are left off. A line that says so, or that is headed by a name, gives the form on record, which may keep a tag or linker. Residues count along the entry.
UniProt O94925, 55-550 with tags or gaps limits assumed: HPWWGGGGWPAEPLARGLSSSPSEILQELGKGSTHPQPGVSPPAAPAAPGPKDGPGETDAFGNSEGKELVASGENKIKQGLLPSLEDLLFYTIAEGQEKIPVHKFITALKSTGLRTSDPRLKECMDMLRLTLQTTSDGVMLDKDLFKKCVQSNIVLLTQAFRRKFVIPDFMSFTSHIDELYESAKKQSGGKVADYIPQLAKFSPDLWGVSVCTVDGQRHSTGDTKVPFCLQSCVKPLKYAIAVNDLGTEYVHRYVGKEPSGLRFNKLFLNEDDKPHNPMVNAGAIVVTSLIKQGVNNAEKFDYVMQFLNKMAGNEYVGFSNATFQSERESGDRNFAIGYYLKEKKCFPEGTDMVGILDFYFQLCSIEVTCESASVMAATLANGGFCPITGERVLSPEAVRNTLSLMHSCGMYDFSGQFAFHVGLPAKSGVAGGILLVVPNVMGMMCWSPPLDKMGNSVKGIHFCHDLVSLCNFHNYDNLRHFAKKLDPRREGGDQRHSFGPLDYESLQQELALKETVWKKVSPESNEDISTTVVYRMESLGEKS

Key:
[1] = biological target: purified recombinant human GAC (GLS1) (Homo sapiens (Human), UniProt O94925); test: GLS1 Enzymatic Activity Assay (dual-coupled enzymatic assay, resorufin/Amplex UltraRed readout); assay type: biochemical; conditions: read-out: GLS1 IC50;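 also: glutamate from GAC coupled via glutamate oxidase and peroxidase to resorufin, read as fluorescence (ex 530, em 590 nm) kinetically or at 20 min, four-parameter logistic IC50 fit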
[2] = tested on: A549 cells; test: Proliferation Assay (A549 viability, Cell Titer Fluor, 72 hours); assay type: cell-based; conditions: read-out: A549 EC50

Compound `O=C(NCc1cc(C(F)(F)F)ccn1)c1cn(CC(F)CCc2nnc(NC(=O)C3CC3)s2)nn1` (centres unmarked) has an IC50 [1] of less than 100 nM and an EC50 [2] of 100 to 500 nM.
